The other results are listed elsewhere or left out.
compound: C1=CC=C(C=C1)[C@H](COC2=CC3=C(C=C2)NC(=O)N3)NC(=O)C4=CC=CN(C4=O)CC5=CC(=C(C=C5)F)F; test: log2 fold change, soluble protein after heating vs DMSO (PISA); higher = thermal stabilisation; K562 lysate, 10 uM; active = over 0.2 and 3.5 SD of the protein, either way, in both replicates (recomputed)
Procedure, shortened: (§1)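 Log-two fold change in thermal stability relative to solvent controls is reported from duplicates. For each sample, crude K562 extract from dounce-homogenised pellets in PBS pH 7.4 with 1 mM MgCl2, at 1 mg/mL protein, was treated with 10 μM compound for 30 min. Aliquots heated for 3 min across 48°C-58°C were pooled, brought to 0.5% NP-40 at 4°C and cleared at 21,000xg for 90 min. The supernatant was quantified by TMTpro 16plex LC-MS/MS with channel sums equalised.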

Chains of the proteins cited; added tags and fusions are not shown. Lines headed by an entry give the natural chain unless they say otherwise; changes in a name come on top.
UniProt P51790: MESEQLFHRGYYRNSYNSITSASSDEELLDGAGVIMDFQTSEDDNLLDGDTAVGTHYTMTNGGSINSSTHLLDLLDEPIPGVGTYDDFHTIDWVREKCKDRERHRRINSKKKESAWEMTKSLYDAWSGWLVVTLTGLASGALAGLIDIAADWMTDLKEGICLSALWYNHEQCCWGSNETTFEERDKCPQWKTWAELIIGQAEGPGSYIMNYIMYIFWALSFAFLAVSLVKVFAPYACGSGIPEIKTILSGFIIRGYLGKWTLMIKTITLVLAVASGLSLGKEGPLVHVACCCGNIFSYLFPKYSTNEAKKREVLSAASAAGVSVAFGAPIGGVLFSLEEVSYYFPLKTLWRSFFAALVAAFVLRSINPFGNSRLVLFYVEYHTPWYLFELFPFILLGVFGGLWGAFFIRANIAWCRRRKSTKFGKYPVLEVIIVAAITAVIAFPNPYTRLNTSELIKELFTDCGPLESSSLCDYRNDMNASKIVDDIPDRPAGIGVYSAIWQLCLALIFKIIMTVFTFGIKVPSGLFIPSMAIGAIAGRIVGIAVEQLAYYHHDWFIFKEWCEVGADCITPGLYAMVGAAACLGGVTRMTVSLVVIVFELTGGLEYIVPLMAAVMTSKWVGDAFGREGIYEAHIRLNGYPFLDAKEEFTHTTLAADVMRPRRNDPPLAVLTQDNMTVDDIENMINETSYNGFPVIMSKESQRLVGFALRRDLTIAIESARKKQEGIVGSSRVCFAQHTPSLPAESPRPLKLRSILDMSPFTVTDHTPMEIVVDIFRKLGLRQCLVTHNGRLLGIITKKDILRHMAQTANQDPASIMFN
UniProt O15111: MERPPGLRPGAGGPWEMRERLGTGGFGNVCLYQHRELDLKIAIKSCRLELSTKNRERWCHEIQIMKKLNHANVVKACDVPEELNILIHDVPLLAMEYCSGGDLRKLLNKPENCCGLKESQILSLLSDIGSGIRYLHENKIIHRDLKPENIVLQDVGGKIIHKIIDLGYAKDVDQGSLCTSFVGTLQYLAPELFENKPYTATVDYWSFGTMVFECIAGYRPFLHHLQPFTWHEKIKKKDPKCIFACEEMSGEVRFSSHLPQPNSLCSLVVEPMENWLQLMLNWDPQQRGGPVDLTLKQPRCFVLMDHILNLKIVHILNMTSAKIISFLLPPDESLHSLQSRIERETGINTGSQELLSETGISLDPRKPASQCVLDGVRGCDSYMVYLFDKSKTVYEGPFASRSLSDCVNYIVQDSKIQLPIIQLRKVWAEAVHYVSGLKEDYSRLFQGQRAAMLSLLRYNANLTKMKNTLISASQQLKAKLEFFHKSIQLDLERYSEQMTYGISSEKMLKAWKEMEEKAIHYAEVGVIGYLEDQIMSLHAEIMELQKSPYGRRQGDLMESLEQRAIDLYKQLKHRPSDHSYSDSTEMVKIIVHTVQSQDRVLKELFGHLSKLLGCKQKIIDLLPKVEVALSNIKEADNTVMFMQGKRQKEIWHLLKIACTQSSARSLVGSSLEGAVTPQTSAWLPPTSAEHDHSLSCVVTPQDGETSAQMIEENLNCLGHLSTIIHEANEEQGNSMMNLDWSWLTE
UniProt P30622: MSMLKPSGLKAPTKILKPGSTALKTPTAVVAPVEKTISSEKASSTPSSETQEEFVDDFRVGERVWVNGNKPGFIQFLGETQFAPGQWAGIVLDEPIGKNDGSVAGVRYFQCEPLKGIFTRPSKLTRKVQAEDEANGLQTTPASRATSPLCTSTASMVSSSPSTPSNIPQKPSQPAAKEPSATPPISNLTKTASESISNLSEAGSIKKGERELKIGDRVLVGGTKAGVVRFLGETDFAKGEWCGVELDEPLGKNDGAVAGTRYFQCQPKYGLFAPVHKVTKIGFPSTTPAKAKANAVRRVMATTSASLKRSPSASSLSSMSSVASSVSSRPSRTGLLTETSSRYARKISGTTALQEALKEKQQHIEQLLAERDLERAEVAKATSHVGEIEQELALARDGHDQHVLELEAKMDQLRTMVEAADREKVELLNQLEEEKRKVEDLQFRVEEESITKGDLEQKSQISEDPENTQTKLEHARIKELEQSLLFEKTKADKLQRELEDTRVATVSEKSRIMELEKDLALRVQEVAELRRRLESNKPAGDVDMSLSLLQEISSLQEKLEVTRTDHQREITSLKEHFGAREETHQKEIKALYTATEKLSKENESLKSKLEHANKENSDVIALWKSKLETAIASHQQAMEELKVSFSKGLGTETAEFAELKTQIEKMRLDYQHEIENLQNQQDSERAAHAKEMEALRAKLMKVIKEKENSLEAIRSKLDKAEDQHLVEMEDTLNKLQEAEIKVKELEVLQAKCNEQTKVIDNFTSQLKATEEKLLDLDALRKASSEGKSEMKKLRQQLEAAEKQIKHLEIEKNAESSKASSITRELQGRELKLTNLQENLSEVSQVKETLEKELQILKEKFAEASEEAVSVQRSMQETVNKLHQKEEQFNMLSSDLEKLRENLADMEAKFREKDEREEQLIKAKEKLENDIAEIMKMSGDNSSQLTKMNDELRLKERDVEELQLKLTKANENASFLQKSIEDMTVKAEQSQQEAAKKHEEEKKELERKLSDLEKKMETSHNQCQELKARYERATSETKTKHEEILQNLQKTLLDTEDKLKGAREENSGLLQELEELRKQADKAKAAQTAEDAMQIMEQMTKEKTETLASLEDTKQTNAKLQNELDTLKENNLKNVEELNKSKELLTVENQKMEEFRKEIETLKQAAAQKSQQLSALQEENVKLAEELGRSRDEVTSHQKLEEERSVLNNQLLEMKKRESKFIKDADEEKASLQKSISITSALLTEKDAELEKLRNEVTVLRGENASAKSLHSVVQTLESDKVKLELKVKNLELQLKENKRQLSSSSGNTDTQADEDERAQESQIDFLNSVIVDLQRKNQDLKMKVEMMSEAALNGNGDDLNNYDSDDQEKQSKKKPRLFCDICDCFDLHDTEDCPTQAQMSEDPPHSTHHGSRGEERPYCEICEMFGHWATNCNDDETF
UniProt Q8N2M8: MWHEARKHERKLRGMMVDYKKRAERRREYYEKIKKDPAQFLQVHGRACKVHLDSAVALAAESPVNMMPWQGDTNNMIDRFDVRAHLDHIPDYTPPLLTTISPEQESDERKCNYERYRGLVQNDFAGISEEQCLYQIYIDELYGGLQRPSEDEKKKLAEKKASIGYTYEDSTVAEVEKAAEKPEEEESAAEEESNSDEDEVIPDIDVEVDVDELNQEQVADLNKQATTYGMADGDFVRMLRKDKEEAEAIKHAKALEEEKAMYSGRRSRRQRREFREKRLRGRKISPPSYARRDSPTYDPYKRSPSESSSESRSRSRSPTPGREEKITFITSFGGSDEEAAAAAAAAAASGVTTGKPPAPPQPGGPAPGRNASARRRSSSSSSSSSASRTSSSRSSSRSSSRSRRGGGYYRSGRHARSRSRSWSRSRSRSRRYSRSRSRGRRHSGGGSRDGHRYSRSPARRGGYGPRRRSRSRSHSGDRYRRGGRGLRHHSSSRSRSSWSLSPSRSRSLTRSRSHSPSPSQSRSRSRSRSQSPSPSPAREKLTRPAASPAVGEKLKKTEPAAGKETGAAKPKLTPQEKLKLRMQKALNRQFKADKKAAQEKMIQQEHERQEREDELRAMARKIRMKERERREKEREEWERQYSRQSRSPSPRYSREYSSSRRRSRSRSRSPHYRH
UniProt Q13286: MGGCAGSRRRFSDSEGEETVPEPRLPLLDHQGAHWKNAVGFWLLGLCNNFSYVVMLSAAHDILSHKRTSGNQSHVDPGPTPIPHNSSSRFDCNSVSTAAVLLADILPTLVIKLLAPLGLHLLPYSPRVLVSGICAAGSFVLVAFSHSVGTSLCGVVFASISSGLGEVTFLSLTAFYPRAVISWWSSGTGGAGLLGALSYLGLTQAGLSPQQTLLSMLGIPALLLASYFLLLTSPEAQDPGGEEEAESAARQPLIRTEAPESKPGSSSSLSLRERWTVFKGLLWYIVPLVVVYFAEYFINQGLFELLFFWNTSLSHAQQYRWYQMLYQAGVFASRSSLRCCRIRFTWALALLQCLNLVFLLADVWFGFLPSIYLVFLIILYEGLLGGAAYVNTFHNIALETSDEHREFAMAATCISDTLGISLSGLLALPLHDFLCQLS
UniProt Q9H444: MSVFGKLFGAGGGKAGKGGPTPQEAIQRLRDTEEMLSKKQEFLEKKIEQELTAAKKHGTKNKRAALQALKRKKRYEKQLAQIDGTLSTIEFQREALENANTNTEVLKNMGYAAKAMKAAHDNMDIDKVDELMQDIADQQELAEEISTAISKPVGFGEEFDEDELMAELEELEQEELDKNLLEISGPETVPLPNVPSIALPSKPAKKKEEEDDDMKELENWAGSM
UniProt Q8TDI0: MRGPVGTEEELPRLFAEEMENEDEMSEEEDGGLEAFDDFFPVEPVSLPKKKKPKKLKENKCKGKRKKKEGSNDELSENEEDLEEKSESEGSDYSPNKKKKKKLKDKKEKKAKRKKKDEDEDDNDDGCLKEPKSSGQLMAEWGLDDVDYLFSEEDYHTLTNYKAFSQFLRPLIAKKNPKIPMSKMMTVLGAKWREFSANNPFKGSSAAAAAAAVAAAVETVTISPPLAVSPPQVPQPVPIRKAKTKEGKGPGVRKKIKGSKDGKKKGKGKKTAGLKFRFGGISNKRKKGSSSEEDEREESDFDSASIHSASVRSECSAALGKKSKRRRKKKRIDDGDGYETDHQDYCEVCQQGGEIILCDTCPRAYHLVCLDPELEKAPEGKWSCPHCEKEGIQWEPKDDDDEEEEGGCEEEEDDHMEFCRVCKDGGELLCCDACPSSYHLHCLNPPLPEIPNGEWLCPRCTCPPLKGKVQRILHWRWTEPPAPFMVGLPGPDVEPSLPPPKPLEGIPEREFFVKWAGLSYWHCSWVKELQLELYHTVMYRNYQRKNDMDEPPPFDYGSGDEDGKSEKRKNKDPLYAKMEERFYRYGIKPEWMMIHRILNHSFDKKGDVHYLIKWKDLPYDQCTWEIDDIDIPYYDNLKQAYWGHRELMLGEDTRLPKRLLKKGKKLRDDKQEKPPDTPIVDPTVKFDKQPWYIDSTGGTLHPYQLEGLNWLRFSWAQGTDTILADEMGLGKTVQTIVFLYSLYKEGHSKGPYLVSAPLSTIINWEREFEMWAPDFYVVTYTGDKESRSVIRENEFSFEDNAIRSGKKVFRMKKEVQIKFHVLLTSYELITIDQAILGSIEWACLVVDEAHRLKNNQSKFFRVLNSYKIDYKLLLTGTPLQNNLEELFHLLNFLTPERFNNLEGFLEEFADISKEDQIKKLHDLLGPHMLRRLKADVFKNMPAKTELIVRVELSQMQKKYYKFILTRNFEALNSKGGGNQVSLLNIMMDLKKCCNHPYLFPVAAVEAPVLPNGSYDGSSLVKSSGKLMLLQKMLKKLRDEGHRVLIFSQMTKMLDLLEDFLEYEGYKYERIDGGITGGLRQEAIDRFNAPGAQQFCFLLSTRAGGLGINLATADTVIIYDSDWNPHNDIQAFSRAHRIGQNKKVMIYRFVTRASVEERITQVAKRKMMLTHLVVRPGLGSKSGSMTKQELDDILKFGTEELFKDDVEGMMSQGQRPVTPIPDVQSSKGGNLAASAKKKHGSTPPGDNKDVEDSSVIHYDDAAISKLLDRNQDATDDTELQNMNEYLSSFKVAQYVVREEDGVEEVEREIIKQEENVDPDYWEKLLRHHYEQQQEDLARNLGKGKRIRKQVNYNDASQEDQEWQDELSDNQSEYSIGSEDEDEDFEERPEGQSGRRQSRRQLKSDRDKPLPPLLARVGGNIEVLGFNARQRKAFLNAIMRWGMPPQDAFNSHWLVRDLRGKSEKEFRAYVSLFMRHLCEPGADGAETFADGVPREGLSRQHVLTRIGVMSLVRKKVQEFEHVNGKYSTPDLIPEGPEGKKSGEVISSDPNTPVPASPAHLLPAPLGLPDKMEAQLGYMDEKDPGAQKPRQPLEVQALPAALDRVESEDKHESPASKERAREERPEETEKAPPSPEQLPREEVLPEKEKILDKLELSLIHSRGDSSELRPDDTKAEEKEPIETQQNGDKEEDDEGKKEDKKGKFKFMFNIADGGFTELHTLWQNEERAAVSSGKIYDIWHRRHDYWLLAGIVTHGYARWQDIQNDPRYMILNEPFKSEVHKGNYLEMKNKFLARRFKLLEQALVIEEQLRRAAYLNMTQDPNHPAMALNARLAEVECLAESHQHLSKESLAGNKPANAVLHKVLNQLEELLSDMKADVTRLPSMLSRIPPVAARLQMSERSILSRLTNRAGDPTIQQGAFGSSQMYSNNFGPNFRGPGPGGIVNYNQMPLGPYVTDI
UniProt Q9NY35: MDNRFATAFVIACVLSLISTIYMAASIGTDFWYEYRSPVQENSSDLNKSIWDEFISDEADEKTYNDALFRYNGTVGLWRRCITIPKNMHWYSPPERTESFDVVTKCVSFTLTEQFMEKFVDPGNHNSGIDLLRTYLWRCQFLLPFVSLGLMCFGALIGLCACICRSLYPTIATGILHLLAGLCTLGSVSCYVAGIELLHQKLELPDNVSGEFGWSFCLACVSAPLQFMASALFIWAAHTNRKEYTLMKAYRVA

Target | log2 fold change
CLPTM1 (UniProt O96005) | inactive: -0.044
CLCN3 (UniProt P51790) | inactive: 0.094
CHUK (UniProt O15111) | inactive: -0.02
CLIP1 isoform 2 (UniProt P30622) | inactive: 0.11
CHKA (UniProt P35790) | inactive: 0.05
CLASRP (UniProt Q8N2M8) | inactive: 0.066
CLN3 (UniProt Q13286) | inactive: 0.053
CHMP4B (UniProt Q9H444) | inactive: 0.061
CMTM3 (UniProt Q96MX0) | inactive: 0.058

compound: CC1=C(SC2=C1C(=N[C@H](C3=NN=C(N32)C)CC(=O)N)C4=CC=C(C=C4)Cl)C; test: as above
Procedure, shortened: as §1

Target | log2 fold change
CMTM6 (UniProt Q9NX76) | inactive: -0.087
CKAP4 (UniProt Q07065) | inactive: -0.059
CLASP2 (UniProt O75122) | inactive: -0.248
CLN5 (UniProt O75503) | inactive: 0.071
CIAO3 (UniProt Q9H6Q4) | inactive: 0.037
CLDN12 (UniProt P56749) | inactive: 0.047
CIAO2A (UniProt Q9H5X1) | inactive: 0.062
CLIC6 (UniProt Q96NY7) | inactive: 0
CKMT1A (UniProt P12532) | inactive: -0.005
CLIP1 isoform 1 (UniProt P30622) | inactive: -0.008
CLCC1 (UniProt Q96S66) | inactive: -0.014
CHD5 (UniProt Q8TDI0) | inactive: 0.003
CLN8 (UniProt Q9UBY8) | inactive: 0.052
CLEC16A isoform 2 (UniProt Q2KHT3) | inactive: 0.137
CKAP5 (UniProt Q14008) | inactive: -0.019
CHTF8 (UniProt P0CG13) | inactive: 0.14

Target | log2 fold change
CHPF (UniProt Q8IZ52) | inactive: -0.015
CHMP4A (UniProt H0YIN6) | inactive: 0.166
CLIP4 (UniProt Q8N3C7) | inactive: -0.095
CLUL1 (UniProt Q15846) | inactive: -0.205
CHAF1A (UniProt Q13111) | inactive: 0.136
CLDND1 (UniProt Q9NY35) | inactive: -0.04
CLEC16A (UniProt Q2KHT3) | inactive: -0.032
CLPTM1 (UniProt O96005) | inactive: -0.014
CLCN3 (UniProt P51790) | inactive: 0.014
CHUK (UniProt O15111) | inactive: 0.032
CLIP1 isoform 2 (UniProt P30622) | inactive: -0.03
CHKA (UniProt P35790) | inactive: 0.037
CLASRP (UniProt Q8N2M8) | inactive: 0.04
CLN3 (UniProt Q13286) | inactive: -0.092
CHMP4B (UniProt Q9H444) | inactive: -0.028
CMTM3 (UniProt Q96MX0) | inactive: -0.097

compound: CC1=C2C(=CC=C1)N=C(N(C2=O)C3=CC=CC=C3C)CN4C=NC5=C(N=CN=C54)N; test: as above
Procedure, shortened: as §1

Target | log2 fold change
CLASP2 (UniProt O75122) | inactive: -0.105
CLN5 (UniProt O75503) | inactive: -0.13
CIAO3 (UniProt Q9H6Q4) | inactive: 0.007
CIAO2A (UniProt Q9H5X1) | inactive: 0.023
CLIC6 (UniProt Q96NY7) | inactive: 0.116
CKMT1A (UniProt P12532) | inactive: 0.002
CLIP1 isoform 1 (UniProt P30622) | inactive: -0.002
CLCC1 (UniProt Q96S66) | inactive: 0.022
CHD5 (UniProt Q8TDI0) | inactive: -0.002
CKAP5 (UniProt Q14008) | inactive: 0.01
CLIP4 (UniProt Q8N3C7) | inactive: -0.018
CLUL1 (UniProt Q15846) | inactive: 0.026
CHAF1A (UniProt Q13111) | inactive: 0.041
CLDND1 (UniProt Q9NY35) | inactive: -0.024
CLEC16A (UniProt Q2KHT3) | inactive: 0.046
CLPTM1 (UniProt O96005) | inactive: -0.058
CLCN3 (UniProt P51790) | inactive: 0.061
CHUK (UniProt O15111) | inactive: 0
CHKA (UniProt P35790) | inactive: 0.023
CLASRP (UniProt Q8N2M8) | inactive: -0.013
CHMP4B (UniProt Q9H444) | inactive: -0.036
CMTM3 (UniProt Q96MX0) | inactive: -0.018

compound: Cc1sc2c(c1C)C(c1ccc(Cl)cc1)=N[C@@H](CC(=O)OC(C)(C)C)c1nnc(C)n1-2; test: as above
Procedure, shortened: as §1

Target | log2 fold change
CMTM6 (UniProt Q9NX76) | inactive: -0.07
CKAP4 (UniProt Q07065) | inactive: -0.013
CIAO3 (UniProt Q9H6Q4) | inactive: 0.019
CLDN12 (UniProt P56749) | inactive: -0.083
CIAO2A (UniProt Q9H5X1) | inactive: -0.032
CLIC6 (UniProt Q96NY7) | inactive: -0.01
CKMT1A (UniProt P12532) | inactive: 0.105
CLIP1 isoform 1 (UniProt P30622) | inactive: -0.028
CLCC1 (UniProt Q96S66) | inactive: -0.007
CHD5 (UniProt Q8TDI0) | inactive: 0.085
CLN8 (UniProt Q9UBY8) | inactive: -0.198
CLEC16A isoform 2 (UniProt Q2KHT3) | inactive: 0.098
CKAP5 (UniProt Q14008) | inactive: 0.014
CHTF8 (UniProt P0CG13) | inactive: 0.049
CHPF (UniProt Q8IZ52) | inactive: -0.133
CHMP4A (UniProt H0YIN6) | inactive: -0.222
CHAF1A (UniProt Q13111) | inactive: 0.017
CLDND1 (UniProt Q9NY35) | inactive: -0.02
CLEC16A (UniProt Q2KHT3) | inactive: -0.015
CLPTM1 (UniProt O96005) | inactive: -0.018
CLCN3 (UniProt P51790) | inactive: 0.063
CHUK (UniProt O15111) | inactive: -0.026
CLIP1 isoform 2 (UniProt P30622) | inactive: 0.009
CHKA (UniProt P35790) | inactive: 0.124
CLASRP (UniProt Q8N2M8) | inactive: -0.02
CLN3 (UniProt Q13286) | inactive: -0.001
CHMP4B (UniProt Q9H444) | inactive: 0.015
CMTM3 (UniProt Q96MX0) | inactive: 0.015
